Measured values: doi:10.1101/2021.01.12.426368
These are yes or no findings as the source states them, for the method shown. In cells and extracts the contact can be indirect. Some entries that bind do so weakly or less than the wild type.

By UniProt entry, the sequences of proteins in these tests, tags left out.
UniProt O43707: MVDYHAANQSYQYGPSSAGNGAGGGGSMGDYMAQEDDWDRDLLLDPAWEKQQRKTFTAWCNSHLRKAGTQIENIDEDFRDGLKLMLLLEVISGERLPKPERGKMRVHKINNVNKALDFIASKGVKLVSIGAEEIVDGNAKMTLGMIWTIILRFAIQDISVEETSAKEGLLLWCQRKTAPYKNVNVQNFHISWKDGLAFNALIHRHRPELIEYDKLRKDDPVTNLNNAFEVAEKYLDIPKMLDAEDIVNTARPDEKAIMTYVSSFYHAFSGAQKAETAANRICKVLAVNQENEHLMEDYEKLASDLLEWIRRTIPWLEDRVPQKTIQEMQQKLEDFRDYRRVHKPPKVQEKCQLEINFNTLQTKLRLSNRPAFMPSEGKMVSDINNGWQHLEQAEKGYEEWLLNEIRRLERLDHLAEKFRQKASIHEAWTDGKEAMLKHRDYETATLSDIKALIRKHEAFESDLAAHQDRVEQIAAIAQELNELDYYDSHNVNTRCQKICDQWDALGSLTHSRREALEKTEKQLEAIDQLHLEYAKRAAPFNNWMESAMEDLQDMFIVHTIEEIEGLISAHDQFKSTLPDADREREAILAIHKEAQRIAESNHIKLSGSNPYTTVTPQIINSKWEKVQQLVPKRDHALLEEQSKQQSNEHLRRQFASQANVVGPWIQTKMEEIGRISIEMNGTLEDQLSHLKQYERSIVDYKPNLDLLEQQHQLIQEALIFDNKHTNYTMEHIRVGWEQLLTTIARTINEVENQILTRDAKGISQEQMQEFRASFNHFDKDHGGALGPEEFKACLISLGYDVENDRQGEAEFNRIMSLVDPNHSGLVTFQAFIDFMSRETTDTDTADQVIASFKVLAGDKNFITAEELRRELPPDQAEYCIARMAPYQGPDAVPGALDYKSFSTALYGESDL
UniProt P35579: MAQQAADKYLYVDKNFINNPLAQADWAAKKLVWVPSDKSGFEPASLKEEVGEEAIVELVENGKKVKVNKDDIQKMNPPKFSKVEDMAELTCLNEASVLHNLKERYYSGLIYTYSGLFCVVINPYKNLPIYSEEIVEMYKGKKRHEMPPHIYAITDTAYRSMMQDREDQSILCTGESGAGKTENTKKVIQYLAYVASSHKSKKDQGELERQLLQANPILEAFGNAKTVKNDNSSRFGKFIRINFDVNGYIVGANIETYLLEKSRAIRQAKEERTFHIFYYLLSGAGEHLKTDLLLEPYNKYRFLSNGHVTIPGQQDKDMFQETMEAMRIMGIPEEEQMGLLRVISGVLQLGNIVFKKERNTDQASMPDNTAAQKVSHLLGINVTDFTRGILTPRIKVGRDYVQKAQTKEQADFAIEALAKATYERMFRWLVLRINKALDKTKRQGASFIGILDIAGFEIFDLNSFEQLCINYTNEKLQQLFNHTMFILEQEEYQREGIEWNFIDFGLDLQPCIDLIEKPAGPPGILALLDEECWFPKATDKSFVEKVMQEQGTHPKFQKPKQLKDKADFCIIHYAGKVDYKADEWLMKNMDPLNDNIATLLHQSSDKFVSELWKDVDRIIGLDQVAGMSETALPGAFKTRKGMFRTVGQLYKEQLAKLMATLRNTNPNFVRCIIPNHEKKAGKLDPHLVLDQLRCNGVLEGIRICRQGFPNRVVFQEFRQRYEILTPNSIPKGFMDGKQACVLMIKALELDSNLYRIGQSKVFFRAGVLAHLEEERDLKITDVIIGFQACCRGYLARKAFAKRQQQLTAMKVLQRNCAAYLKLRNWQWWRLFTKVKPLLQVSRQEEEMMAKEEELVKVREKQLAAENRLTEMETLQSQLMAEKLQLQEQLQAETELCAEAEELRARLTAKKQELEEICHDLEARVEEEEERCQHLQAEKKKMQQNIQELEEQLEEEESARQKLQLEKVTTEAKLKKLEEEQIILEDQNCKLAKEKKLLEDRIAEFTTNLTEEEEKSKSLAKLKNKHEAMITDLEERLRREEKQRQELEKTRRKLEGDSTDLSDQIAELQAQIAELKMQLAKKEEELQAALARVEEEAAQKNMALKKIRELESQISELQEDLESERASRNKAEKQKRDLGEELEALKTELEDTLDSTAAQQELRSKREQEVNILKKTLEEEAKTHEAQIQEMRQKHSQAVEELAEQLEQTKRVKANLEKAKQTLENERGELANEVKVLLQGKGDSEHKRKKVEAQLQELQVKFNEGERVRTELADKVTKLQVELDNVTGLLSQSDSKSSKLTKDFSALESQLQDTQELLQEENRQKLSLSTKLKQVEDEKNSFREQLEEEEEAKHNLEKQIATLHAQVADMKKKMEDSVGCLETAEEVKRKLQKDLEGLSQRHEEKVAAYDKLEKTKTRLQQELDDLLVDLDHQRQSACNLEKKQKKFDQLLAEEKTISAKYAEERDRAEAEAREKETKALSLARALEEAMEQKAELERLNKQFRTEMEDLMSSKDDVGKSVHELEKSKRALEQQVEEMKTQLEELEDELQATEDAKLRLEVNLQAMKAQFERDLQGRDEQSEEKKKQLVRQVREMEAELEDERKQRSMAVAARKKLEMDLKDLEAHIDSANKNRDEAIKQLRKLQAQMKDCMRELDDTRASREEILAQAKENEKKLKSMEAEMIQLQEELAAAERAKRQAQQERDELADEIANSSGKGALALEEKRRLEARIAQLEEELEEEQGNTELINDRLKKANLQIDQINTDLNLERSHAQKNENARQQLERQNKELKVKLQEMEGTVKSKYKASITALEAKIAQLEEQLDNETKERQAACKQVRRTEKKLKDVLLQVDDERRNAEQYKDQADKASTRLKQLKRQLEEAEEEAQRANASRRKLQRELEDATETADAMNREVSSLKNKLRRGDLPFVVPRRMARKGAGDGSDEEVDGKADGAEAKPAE

Columns and labels:
[1] = molecular target: α-actinin-4 (human (endogenous in MDA-MB-231 and HT-1080)) (UniProt O43707); assay: co-IP
[2] = molecular target: eGFP-ACTN4 (UniProt O43707); assay: proximity ligation
[3] = molecular target: α-actinin-4 (human (endogenous in MDA-MB-231 and HT-1080)) (UniProt O43707); assay: proximity ligation

- binding [1]: binds
- binding [2]: binds
- binding [3]: binds
Substance: non-muscle myosin IIA (from UniProt P35579 1-1960)
